From EP1770089A1, “Pyranodibenzofuran derivatives with antifungal and antibacterial activity” (priority 2005, dated 2007)

Experiments:
Assay type in all cases: cell-based
[1] = test system: L1210 cells; test: Cytotoxicity, MTA (Microculture Tetrazolium Assay) test; details: SI = IC50/MIC99, MIC99 used not specified
Procedure: The cytotoxicity of compounds 5, 9, and 10-21 was determined in L1210 cells using the MTA (Microculture Tetrazolium Assay) test.

[2] = test system: VERO cells; test: Cytotoxicity, MTT test; details: SI = IC50/MIC99
Procedure: (§1) The cytotoxicity of compounds 9 and 16 was further assessed in various mammalian cell lines using the MTT test. RAW and A549 cell lines were maintained in RPMI 1640 medium without L-GLU supplemented with 10% Fetal calf serum (FCS), penicillin-streptomycin solution 1 % at 37 °C in air with 5 % CO2. VERO cell lines were maintained in D-MEM medium without L-GLU supplemented with 10% Fetal calf Serum (FCS), penicillin-streptomycin solution 1 % at 37 °C in air with 5 % CO2. Proliferating cells were seeded for 96-well microtitration plates at a density of 5. 10^5 cells/mL which were further incubated for 24 h at 37°C under 5 % CO2 in air before each assay. Various concentrations of solutions of 9 and 16 (10 µl/well) in 1.25 % dimethylsulfoxide (DMSO)) were added and then incubated for 24 hours under the above conditions. At the end of incubation, 20 µl of dimethylthiazolyl diphenyl tetrazolium bromide solution (MTT) (7.5 mg/ml) was then added into each well and further incubated for 4 h at 37°C to allow the formation of formazan. The crystals of formazan were then dissolved with 100 µl of an acidic solution (Sodium dodecyl sulfate (SDS) 10 %, HCl 10 mM). The optical density of each well was measured at 595 nm using a Multiwell plate reader. The values given are the average means of six replicates. The 50 % inhibition concentration was determined by curve fitting.

[3] = test system: Macrophages; test: Cytotoxicity, MTT test; details: SI = IC50/MIC99
Procedure: as §1

Compound	SI [1]	SI [2]	SI [3]
CC1(C)Oc2cc3c(cc2[C@H](O)[C@@H]1O)oc1ccccc13 (racemic) [Compound 11, (±)cis-3,4-dihydro-3,4-dihydroxy-2,2-dimethyl-2H-benzofuro[2,3-g]-[1]-benzopyran]	< 0.4332	–	–
CC1(C)Oc2ccc3oc4ccccc4c3c2[C@@H](O)[C@H]1O (racemic) [Compound 12, (±)cis-1,2-dihydro-1,2-dihydroxy-3,3-dimethyl-3H-benzofuro[3,2-f][1]benzopyran]	< 0.0013	–	–
CC1(C)Oc2ccc3oc4ccccc4c3c2C(=O)C1O (racemic) [Compound 13, (±)2,3-dihydro-2-hydroxy-3,3-dimethyl-1H-benzofuro[3,2-f][1]benzopyran-1-one]	< 0.005045	–	–
CC(=O)CC1(O)C(=O)c2c(ccc3oc4ccccc4c23)OC1(C)C (racemic) [Compound 14, (±)2,3-dihydro-2-hydroxy-3,3-dimethyl-2-(2-oxopropyl)-1Hbenzofuro[3,2f][1]benzopyran-1-one]	0.6327	–	–
CC1(C)Oc2ccc3oc4ccccc4c3c2[C@@H](O)[C@@H]1O (racemic) [Compound 15, (±)trans-1,2,-dihydro-1,2-dihydroxy-3,3-dimethyl-3H-benzofuro[3,2-f][1]benzopyran]	< 0.01234	–	–
CC(=O)O[C@H]1c2cc3oc4ccccc4c3cc2OC(C)(C)[C@H]1OC(C)=O (racemic) [Compound 17, (±)cis-3,4-diacetoxy-3,4-dihydro-2,2-dimethyl-2H-benzofuro[2,3-g]-[1]-benzopyran]	< 0.008521	–	–
CC(=O)O[C@@H]1c2c(ccc3oc4ccccc4c23)OC(C)(C)[C@@H]1OC(C)=O (racemic) [Compound 18, (±)cis-1,2-diacetoxy-1,2-dihydro-3,3-dimethyl-3H-benzofuro[3,2-f][1]benzopyran]	< 0.009348	–	–
CC(=O)O[C@@H]1c2c(ccc3oc4ccccc4c23)OC(C)(C)[C@H]1OC(C)=O (racemic) [Compound 19, (±)trans-1,2,-diacetoxy-1,2-dihydro-3,3-dimethyl-3H-benzofuro[3,2-f][1]benzopyran]	< 0.005501	–	–
CC(=O)OC1C(=O)c2c(ccc3oc4ccccc4c23)OC1(C)C (racemic) [Compound 20, (±)2-acetoxy-2,3-dihydro-2-hydro-3,3-dimethyl-1H-benzofuro[3,2-f][1]benzopyran-1-one]	< 0.0285	–	–
CC1(C)C=Cc2c(ccc3oc4ccccc4c23)O1 [Compound 9, 3,3-dimethyl-3H-benzofuro[3,2-f][1]benzopyran]	> 2.8	15	15
C=C1Oc2ccc3oc4ccccc4c3c2C1(C)C [Compound 10, 1,2-dihydro-1,1-dimethyl-2-methylenebenzofuro[5,4-b]benzofuran]	< 0.06175	–	–
CC1(C)CCc2c(ccc3oc4ccccc4c23)O1 [Compound 16, 1,2-dihydro-3,3-dimethyl-3H-benzofuro[3,2-f][1]benzopyran]	–	20	> 20
NNC(=O)c1ccncc1 [INH, isoniazid, reference compound]	2.8	–	–
(±)cis-4H-3a,4,12b-trihydro-2,2-dimethyl-1,3-dioxolo[4,5-h]benzofuro[3,2-g]benzopyran [Compound 21]	< 0.01285	–	–
